Reference: PubChem BioAssay AID504467 (National Center for Advancing Translational Sciences (NCATS), 2011)
Screen size: about 330,000 compounds; about 7,700 (2.3%) were called active. Inconclusive means that the source gave no clear call. Such entries were picked first, then a sample of the others. The call rests on the fitted dose curve; in most records, active means well fitted inhibition curve with a large enough effect; inconclusive means small, poorly fitted or top-dose-only effect, or effect the other way; inactive means flat fitted curve, though single readings scatter. Potencies beside an inconclusive call are fits to weak or partial responses and may not hold up.

Assay: qHTS screen for small molecules that inhibit ELG1-dependent DNA repair in human embryonic kidney (HEK293T) cells expressing luciferase-tagged ELG1; further: nearly all actives have a fitted effect of over 55% in size
Details: HEK293T ELG1-luciferase reporter, luminescence, 16 h, DNA damage induced by 5-fluorouridine; series mostly up to 46.1 µM
Summary of the method: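 Cells (2,000 per well) received 5-fluorouridine plus test compound or DMSO and were incubated 16 hr at 37 °C, 5% CO2. Luciferase activity was read by luminescence 30 min after ONE-Glo addition; signal suppression marked inhibition of damage-induced ELG1 function.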
Potency means the concentration at half of the fitted maximal effect.

Row | SMILES | Potency
1 | COc1ccc(CCNC(=O)COc2ncnc3cc([N+](=O)[O-])ccc23)cc1 | inactive
2 | Cc1ccccc1Oc1nc2c(C)cccn2c(=O)c1/C=C(\C#N)C(=O)NC1CCS(=O)(=O)C1 (centres undefined) | inconclusive: 8.2 µM [activator, partial curve, poor fit]
3 | O=C(CC1C(=O)NCCN1Cc1ccccn1)NCCc1ccccc1F (centres undefined) | inactive
4 | O=C(Nc1ccccc1N1CCN(c2ccccc2)CC1)c1ccccc1F | inconclusive: 16.4 µM [inhibitor, partial curve, poor fit]
5 | COc1ccc(/C=C/C(=O)OCC(=O)NCC2CCCO2)cc1 (centres undefined) | inactive
6 | Cc1cc(Cl)ccc1N=c1ssnc1Cl | active: 16.4 µM
7 | c1csc(-c2nn[nH]n2)c1 | inconclusive: 23.1 µM [activator, single point]
8 | Cc1cc(OCC(=O)Nc2ccncc2)cc(C)c1Cl | active: 2.59 µM
9 | COC(=O)CNC(=O)c1ccccc1C | inconclusive: 29.1 µM [activator, single point]
10 | Cc1ccc(C)c(NC(=O)CN(C)C(=O)c2cc(-c3cccs3)nn2-c2ccccc2)c1 | inactive
11 | COC(=O)c1c[nH]n2c(=O)c(Cl)c(C)nc12 | inconclusive: 29.1 µM [activator, single point]
12 | Cc1ccc(/C=C/C(=O)NN2CCN(C)CC2)cc1 | inconclusive: 20.6 µM [activator, single point]
13 | COc1cccc2cc(/C(C)=N/NC(=O)c3ccco3)oc12 | inconclusive: 29.1 µM [activator, single point]
14 | Cc1ccc(NC(=O)c2ccc(F)cc2)cc1S(=O)(=O)N1CCCCCC1 | active: 16.4 µM
15 | CC(=O)NCCc1nc2cc(NC(=O)c3ccc(F)cc3)ccc2n1C | inconclusive: 10.3 µM [activator, partial curve]
16 | Oc1ccc(O)c(Cc2nc3ccccc3[nH]2)c1 | inactive
17 | O=C(CN1C(=O)NC2(CCCC2)C1=O)OCc1cccc(Br)c1 | inactive
18 | Cc1sc(NC(=O)CSc2ncn(-c3ccccc3)n2)nc1-c1ccccc1 | inconclusive: 20.6 µM [inhibitor, single point]
19 | CS(=O)(=O)c1ccc(C(=O)NCCN2C(=O)S/C(=C\c3cccnc3)C2=O)cc1[N+](=O)[O-] | inconclusive: 29.1 µM [inhibitor, single point]
20 | CC1CC(C)CN(S(=O)(=O)c2ccc3c(c2)CC(C)N3C(=O)C2CCC2)C1 (centres undefined) | inactive
21 | O=C(NCc1cccc(F)c1F)C1CCC(=O)N(C2CCCCCC2)C1 (centres undefined) | inactive
22 | Cc1cccc(NC(=O)/C(C#N)=C/c2ccc(Sc3ccccc3)o2)c1C | inactive
23 | COc1ccccc1N(CC(=O)N1CCN(c2ccccc2)CC1)S(=O)(=O)c1ccc(C)cc1 | inactive
24 | Cc1cc(OCC(=O)NC2CC(C)(C)NC(C)(C)C2)c2c(C)cc(=O)oc2c1 | inconclusive: 18.3 µM [activator, single point]
25 | Cc1ccc2nc3c(nc2c1C)CCCC3 | inactive

Row | SMILES | Potency
26 | COc1ccc(OC)c(/C=C2\NC(=O)NC2=O)c1 | inconclusive: 11.6 µM [inhibitor, partial curve]
27 | CCCCCC(=O)Nc1ccccc1N1CCN(c2ccccc2)CC1 | inconclusive: 9.2 µM [inhibitor, partial curve, poor fit]
28 | C=CCn1c(SCC(=O)N(C)C)nc2sc3c(c2c1=O)CCC3 | inconclusive: 20.6 µM [activator, single point]
29 | CC1=[N+](CC(=O)c2ccccc2)CCn2cccc21 | inconclusive: 18.3 µM [activator, partial curve]
30 | CCN(CC)S(=O)(=O)c1ccc(N2CCOCC2)c(NC(=O)CC2OC(=O)c3ccccc32)c1 (centres undefined) | inconclusive: 8.2 µM [inhibitor, partial curve, poor fit]
31 | O=C(N/N=C/c1cccc(Cl)c1)c1c(O)c2c([nH]c1=O)CCCC2 | inconclusive: 1.83 µM [activator, partial curve]
32 | COc1ccc(CCNc2ncnc3c2nnn3Cc2ccccc2)cc1 | inconclusive: 13 µM [inhibitor, partial curve, poor fit]
33 | CS(=O)(=O)Nc1ccc(C2=NN(C(=O)c3ccco3)C(c3ccc(F)cc3)C2)cc1 (centres undefined) | inconclusive: 29.1 µM [inhibitor, single point]
34 | O=C(CCNS(=O)(=O)c1c(Cl)cccc1Cl)OCC(=O)c1ccccc1F | inconclusive: 11.6 µM [activator, partial curve]
35 | Cc1c(Cl)ccc2sc(N3CCN(C(=O)C4=COCCO4)CC3)nc12 | inactive
36 | Cc1ccn2cc(C34CC5CC(CC(C5)C3)C4)nc2c1 | inconclusive: 13 µM [activator, partial curve, poor fit]
37 | CCOc1ccc2[nH]c(=O)c(CN(Cc3ccco3)C(=O)c3ccc(Br)cc3)cc2c1 | inactive
38 | CC1NC(=S)N(C2CCCCC2)C1=O (centres undefined) | inactive
39 | CC1CCN(C(=O)CSc2nc(C(C)C)nc3c2c(=O)n(C)c(=O)n3C)CC1 | inconclusive: 20.6 µM [inhibitor, single point]
40 | CCOC(=O)c1c(NC(=O)C(C)Sc2cccc[n+]2[O-])sc2c1CCN(Cc1ccccc1)C2 (centres undefined) | inconclusive: 32.6 µM [inhibitor, single point]
41 | O=C(NCc1ccco1)C1CCN(c2ccc(S(=O)(=O)N3CCOCC3)cc2[N+](=O)[O-])CC1 | inconclusive: 29.1 µM [inhibitor, single point]
42 | CCN(CC)C(=O)CN1CCC(c2nc3cc(C)c(C)cc3[nH]2)CC1 | inactive
43 | Cc1cc(SCC(=O)NCCCN2CCCC2=O)nc2ccccc12 | inconclusive: 5.62 µM [activator, partial curve, poor fit]
44 | Cc1ccsc1CNC1C2CC3CC(C2)CC1C3 (centres undefined) | inactive
45 | Cc1cc(C)c(C(=O)Cn2nc(C(=O)O)c3ccccc3c2=O)cc1C | inconclusive: 6.51 µM [inhibitor, single point]
46 | CC(C)(C)c1ccc(C(=O)N/C(=C\c2ccco2)C(=O)Nc2ccccc2C(=O)O)cc1 | inconclusive: 18.3 µM [activator, single point]
47 | Cc1ccc(S(=O)(=O)NCC2CCCO2)cc1 (centres undefined) | inactive
48 | NCCCCCc1nnc(SCc2ccccc2Cl)o1 | inactive
49 | Cc1ccc(S(=O)(=O)c2nc(C)oc2NCc2ccccc2)cc1 | inactive
50 | CCOc1ccc(/C=C2\CCC(C3CCCC3)C2=O)cc1OC (centres undefined) | inconclusive: 16.4 µM [activator, partial curve, poor fit]

Row | SMILES | Potency
51 | O=C(Nc1nonc1-c1ccc(Cl)cc1)c1ccccc1 | inconclusive: 16.4 µM [inhibitor, single point]
52 | O=C(Nc1ccc(Cc2ccncc2)cc1)c1ccc([N+](=O)[O-])o1 | inactive
53 | COc1ccc(-c2nnn(-c3cc(Cl)cc(Cl)c3)c2N)cc1 | inconclusive: 29.1 µM [inhibitor, single point]
54 | O=C(COC(=O)C1CCCO1)Nc1nc(-c2ccc(F)cc2)cs1 (centres undefined) | inconclusive: 18.3 µM [activator, partial curve]
55 | C=C(C)c1ccc(C(C)(C)NC(=O)NCc2ccco2)cc1 | inactive
56 | O=S(=O)(/N=C(/Nc1ccc(F)cc1F)c1ccccc1)c1ccc(Br)cc1 | inconclusive: 23.1 µM [activator, single point]
57 | O=C(NC(=S)Nc1ccc2nc[nH]c2c1)c1ccccc1 | inconclusive: 7.3 µM [activator, partial curve]
58 | COc1ccc(SCCc2nnc(-c3ccccc3)o2)cc1 | inactive
59 | CN(C)CCCN(C(=O)COc1ccc(Cl)cc1)c1nc2cc3c(cc2s1)OCCO3 | inconclusive: 23.1 µM [activator, single point]
60 | COc1cccc(C2=CC(c3cc(OC)ccc3OC)n3nnnc3N2)c1 (centres undefined) | inconclusive: 29.1 µM [inhibitor, single point]
61 | COC(=O)c1ccccc1NC(=O)CN(c1ccc(C)cc1)S(C)(=O)=O | inactive
62 | Cc1ccc2oc(-c3cccc(N)c3)nc2c1 | inconclusive: 2.31 µM [activator, full curve]
63 | COCCn1c(C)cc(C(=O)COC(=O)c2ccccc2Br)c1C | inconclusive: 2.59 µM [activator, partial curve]
64 | Cc1nn(CCC(=O)NNC(=S)Nc2ccc(F)cc2)c(C)c1[N+](=O)[O-] | inactive
65 | COc1cc(C(=O)NCc2nnc(SCC(=O)Nc3nccs3)o2)cc(OC)c1OC | inactive
66 | COc1ccc(-c2cc(C(=O)Nc3cc(S(=O)(=O)N4CCOCC4)ccc3N3CCOCC3)c3ccccc3n2)cc1 | active: 4.11 µM
67 | Cc1ccc(OCc2nc(-c3ccccc3)no2)c(C)c1 | inconclusive: 6.51 µM [activator, partial curve]
68 | CC1CCCN(C(=O)c2nn(C)c3c2CS(=O)(=O)c2ccccc2-3)C1 (centres undefined) | inactive
69 | CCc1ccc2c(c1)c1nc(C)sc1n2CC(=O)OC | inactive
70 | OCCN1CCN(c2ncnc3sc(-c4ccccc4)cc23)CC1 | inconclusive: 20.6 µM [activator, partial curve, poor fit]
71 | O=C(NCc1cccs1)C1CC(c2ccc(Cl)cc2)=NO1 (centres undefined) | inconclusive: 16.4 µM [activator, single point]
72 | O=C(CSc1nnc(-c2ccc(O)cc2)o1)N1CCOCC1 | inconclusive: 20.6 µM [activator, single point]
73 | COC(=O)CCSCC(=O)N1N=C(c2ccc(Br)cc2)CC1c1cccc(OC)c1OC (centres undefined) | inconclusive: 29.1 µM [inhibitor, single point]
74 | COc1ccc(Nc2nc(NCCO)nc(OC)n2)cc1 | inconclusive: 18.4 µM [activator, single point]
